According to US20210032313A1:
Residue numbers refer to the chain shown, from its start. These are yes or no findings as the source states them, for the method shown. Some binding calls cover weakened binding; strength is not graded here.

Target: T1, bTrypsin
T1 sequence: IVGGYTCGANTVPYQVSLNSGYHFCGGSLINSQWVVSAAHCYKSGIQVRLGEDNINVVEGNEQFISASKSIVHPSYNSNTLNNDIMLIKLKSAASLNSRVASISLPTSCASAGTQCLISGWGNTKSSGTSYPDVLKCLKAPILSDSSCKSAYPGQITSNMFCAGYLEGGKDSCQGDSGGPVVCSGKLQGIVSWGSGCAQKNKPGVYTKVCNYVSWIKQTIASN
Assay: fluorogenic peptide substrate cleavage, 1 µM inhibitor

B1: KLK5 inhibitory peptide K51034 (peptide)
chain: GPQFGLFSKYRTPNCGRYTTGGCNKEYEPVCGSDMSTYANECTLCMKIREGGHNIKIIRNGPCGG
For B1, the binding was “binds”.

B2: KLK5 inhibitory peptide K50062 (peptide)
chain: GPQFGLFSKYRTPNCQQYRELGCGRQYDPVCGSDMSTYANECTLCMKIREGGHNIKIIRNGPCGG
For B2, the binding was “binds”.

B3: KLK5 inhibitory peptide K51090 (peptide)
chain: B2 chain with Q16D, Q17E, Y18I, R19G, E20K, L21Y, Q26S
With B3 the binding was “binds”.

B4: KLK5 inhibitory peptide K50098 (peptide)
chain: B1 chain with G16T, R17S, Y18Q, T20L, G22S, N24S, K25R, E28D
In the case of B4, the binding is reported as “binds”.
